Experimental data published in the supplement of paper PMC10626197.

Test system: MCF7
Assay: cell viability relative to DMSO control (raw); higher = more viable cells
Details: exposure time 72 h
Method: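 MCF7 cells, 1000 cells/well in 384-well plates, treated with 6x6 dose matrices of drug pairs (1:3 serial dilutions, DMSO as lowest dose) for 72 h at 37 °C. Viability read by CellTiter-Glo luminescence, 3 biological replicates. Normalised viability sets 0% at the highest doxorubicin dose and 100% at the 0,0 µM control per combination.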

NC(=O)NO [Hydroxyurea] + Cc1[nH]c(/C=C2\C(=O)Nc3ccccc32)c(C)c1CCC(=O)O [Orantinib]
cell viability [%]
Details | drug 2 concentration 0 µM | drug 2 concentration 0.320988 µM | drug 2 concentration 0.962963 µM | drug 2 concentration 2.88889 µM | drug 2 concentration 8.66667 µM | drug 2 concentration 26 µM
drug 1 concentration 0.555556 µM | 82.6 | 89.4 | 93.8 | 90.1 | 76.5 | 72.5
drug 1 concentration 1.66667 µM | 82.8 | 96.1 | 105 | 96.3 | 90.3 | 75.2
drug 1 concentration 5 µM | 91 | 85.6 | 96.2 | 91.6 | 83.7 | 71.6
drug 1 concentration 15 µM | 99.7 | 96.7 | 88.6 | 96 | 90.3 | 85.8
drug 1 concentration 45 µM | 98.4 | 112 | 109 | 102 | 102 | 82.5

Cc1ccc(NC(=O)c2ccc(CN3CCN(C)CC3)cc2)cc1Nc1nccc(-c2cccnc2)n1 [Imatinib] + C=C1/C(=C\C=C2/CCC[C@]3(C)[C@@H]([C@H](C)CCCC(C)C)CC[C@@H]23)C[C@@H](O)C[C@@H]1O [Alfacalcidol]
cell viability [%]
Details | drug 2 concentration 0 µM | drug 2 concentration 0.617284 µM | drug 2 concentration 1.85185 µM | drug 2 concentration 5.55556 µM | drug 2 concentration 16.6667 µM | drug 2 concentration 50 µM
drug 1 concentration 0.123457 µM | 83.8 | 83.5 | 79.9 | 80.6 | 69.1 | 0.97
drug 1 concentration 0.37037 µM | 77.9 | 78.2 | 80.2 | 74.8 | 49.3 | 0.706
drug 1 concentration 1.11111 µM | 90.3 | 85.2 | 79 | 78.9 | 70.1 | 0.746
drug 1 concentration 3.33333 µM | 77.1 | 71.5 | 79.6 | 74 | 42.1 | 0.618
drug 1 concentration 10 µM | 78.2 | 76.3 | 67.3 | 64.8 | 47 | 0.63

Cc1ccc(NC(=O)c2ccc(CN3CCN(C)CC3)cc2)cc1Nc1nccc(-c2cccnc2)n1 [Imatinib] + CN1CCN(CCCN2c3ccccc3Sc3ccc(C(F)(F)F)cc32)CC1 [Trifluoperazine 2HCl]
cell viability [%]
Details | drug 2 concentration 0 µM | drug 2 concentration 0.185185 µM | drug 2 concentration 0.555556 µM | drug 2 concentration 1.66667 µM | drug 2 concentration 5 µM | drug 2 concentration 15 µM
drug 1 concentration 0.123457 µM | 94.6 | 83.7 | 87.4 | 83.6 | 57.8 | 0.412
drug 1 concentration 0.37037 µM | 82.2 | 77.4 | 79.8 | 74.5 | 25.9 | 0.623
drug 1 concentration 1.11111 µM | 88.8 | 89.6 | 84.3 | 82.2 | 63.7 | 0.559
drug 1 concentration 3.33333 µM | 86.5 | 84.5 | 80.7 | 86.6 | 5.29 | 0.263
drug 1 concentration 10 µM | 88.2 | 90.9 | 79.3 | 77.2 | 48.1 | 0.421

Cc1ccc(NC(=O)c2ccc(CN3CCN(C)CC3)cc2)cc1Nc1nccc(-c2cccnc2)n1 [Imatinib] + COc1cc(Nc2ncc3c(n2)-c2ccc(Cl)cc2C(c2c(F)cccc2OC)=NC3)ccc1C(=O)O [Alisertib]
cell viability [%]
Details | drug 2 concentration 0 µM | drug 2 concentration 0.0617284 µM | drug 2 concentration 0.185185 µM | drug 2 concentration 0.555556 µM | drug 2 concentration 1.66667 µM | drug 2 concentration 5 µM
drug 1 concentration 0.123457 µM | 86 | 81.7 | 76.1 | 73.5 | 75.7 | 69.9
drug 1 concentration 0.37037 µM | 88.6 | 77.9 | 80.2 | 82.8 | 81.3 | 79.9
drug 1 concentration 1.11111 µM | 75.2 | 81.9 | 81.9 | 73.6 | 78.2 | 73.5
drug 1 concentration 3.33333 µM | 91.9 | 95 | 90 | 85.4 | 84 | 80.5
drug 1 concentration 10 µM | 102 | 95.7 | 83.6 | 82.2 | 84.9 | 71.2

Cc1ccc(NC(=O)c2ccc(CN3CCN(C)CC3)cc2)cc1Nc1nccc(-c2cccnc2)n1 [Imatinib] + COc1ccc(CC2c3cc(OC)c(OC)cc3CC[N+]2(C)CCC(=O)OCCCCCOC(=O)CC[N+]2(C)CCc3cc(OC)c(OC)cc3C2Cc2ccc(OC)c(OC)c2)cc1OC [Atracurium (besylate)]
cell viability [%]
Details | drug 2 concentration 0 µM | drug 2 concentration 0.246914 µM | drug 2 concentration 0.740741 µM | drug 2 concentration 2.22222 µM | drug 2 concentration 6.66667 µM | drug 2 concentration 20 µM
drug 1 concentration 0.123457 µM | 107 | 105 | 99.5 | 102 | 97.4 | 67.1
drug 1 concentration 0.37037 µM | 115 | 111 | 120 | 116 | 109 | 85.9
drug 1 concentration 1.11111 µM | 109 | 114 | 118 | 118 | 107 | 72.8
drug 1 concentration 3.33333 µM | 104 | 107 | 112 | 105 | 99.3 | 68.2
drug 1 concentration 10 µM | 101 | 93.1 | 92.6 | 91.4 | 79.7 | 52.6

Cc1ccc(NC(=O)c2ccc(CN3CCN(C)CC3)cc2)cc1Nc1nccc(-c2cccnc2)n1 [Imatinib] + Cc1ncc(NC(=O)c2ccc(CN3CCN(C)CC3)c(C(F)(F)F)c2)cc1Nc1nccc(-c2cccnc2)n1 [Flumatinib (mesylate)]
cell viability [%]
Details | drug 2 concentration 0 µM | drug 2 concentration 0.617284 µM | drug 2 concentration 1.85185 µM | drug 2 concentration 5.55556 µM | drug 2 concentration 16.6667 µM | drug 2 concentration 50 µM
drug 1 concentration 0.123457 µM | 88.4 | 93.9 | 86.7 | 90.9 | 1 | 0.2
drug 1 concentration 0.37037 µM | 96 | 99.6 | 92.2 | 97.7 | 0.666 | 0.189
drug 1 concentration 1.11111 µM | 87 | 88.3 | 89.7 | 98.8 | 1.03 | 0.149
drug 1 concentration 3.33333 µM | 92 | 96.5 | 94 | 91 | 30.4 | 0.237
drug 1 concentration 10 µM | 88.9 | 94 | 86.9 | 102 | 1.34 | 0.35

CC(C)Cn1cnc2c(N)nc3ccccc3c21 [Imiquimod] + Cn1c(=O)c2nc[nH]c2n(C)c1=O [Theophylline]
cell viability [%]
Details | drug 2 concentration 0 µM | drug 2 concentration 0.123457 µM | drug 2 concentration 0.37037 µM | drug 2 concentration 1.11111 µM | drug 2 concentration 3.33333 µM | drug 2 concentration 10 µM
drug 1 concentration 0.0123457 µM | 107 | 102 | 104 | 103 | 107 | 104
drug 1 concentration 0.037037 µM | 99.7 | 96.9 | 100 | 99.6 | 97.4 | 94.4
drug 1 concentration 0.111111 µM | 98.3 | 96.4 | 97.7 | 100 | 100 | 94.8
drug 1 concentration 0.333333 µM | 107 | 95 | 109 | 97.1 | 107 | 103
drug 1 concentration 1 µM | 113 | 106 | 108 | 110 | 111 | 101

CS(=O)(=O)CCNCc1ccc(-c2ccc3ncnc(Nc4ccc(OCc5cccc(F)c5)c(Cl)c4)c3c2)o1 [Lapatinib] + C[C@]12C=CC(=O)C=C1CC[C@@H]1[C@@H]2[C@@H](O)C[C@@]2(C)[C@H]1CC[C@]2(O)C(=O)CO [Prednisolone]
cell viability [%]
Details | drug 2 concentration 0 µM | drug 2 concentration 0.0617284 µM | drug 2 concentration 0.185185 µM | drug 2 concentration 0.555556 µM | drug 2 concentration 1.66667 µM | drug 2 concentration 5 µM
drug 1 concentration 0.123457 µM | 92.6 | 94.5 | 82.4 | 91 | 86.4 | 87.1
drug 1 concentration 0.37037 µM | 100 | 103 | 94.6 | 106 | 93.5 | 89.2
drug 1 concentration 1.11111 µM | 90.9 | 95.3 | 88.4 | 84.2 | 87.5 | 87.9
drug 1 concentration 3.33333 µM | 80.9 | 82.3 | 82.4 | 86 | 78 | 70.3
drug 1 concentration 10 µM | 2.28 | 2.09 | 2.5 | 2.17 | 1.97 | 2.22

CS(=O)(=O)CCNCc1ccc(-c2ccc3ncnc(Nc4ccc(OCc5cccc(F)c5)c(Cl)c4)c3c2)o1 [Lapatinib] + Cc1ncc(NC(=O)c2ccc(CN3CCN(C)CC3)c(C(F)(F)F)c2)cc1Nc1nccc(-c2cccnc2)n1 [Flumatinib (mesylate)]
cell viability [%]
Details | drug 2 concentration 0 µM | drug 2 concentration 0.617284 µM | drug 2 concentration 1.85185 µM | drug 2 concentration 5.55556 µM | drug 2 concentration 16.6667 µM | drug 2 concentration 50 µM
drug 1 concentration 0.123457 µM | 86.3 | 81.5 | 86.2 | 84.5 | 1.13 | 0.147
drug 1 concentration 0.37037 µM | 91.8 | 80.3 | 87.4 | 90.6 | 0.775 | 0.166
drug 1 concentration 1.11111 µM | 86.5 | 87.2 | 89.5 | 84.9 | 0.684 | 0.149
drug 1 concentration 3.33333 µM | 80.7 | 76.5 | 78.1 | 72.7 | 0.181 | 0.159
drug 1 concentration 10 µM | 8.56 | 29.9 | 0.712 | 0.353 | 0.172 | 0.291

Nc1cccc2c1CN(C1CCC(=O)NC1=O)C2=O (stereo not given) [Lenalidomide] + N#CCC1(n2cc(-c3ncnc4[nH]ccc34)cn2)CN(C2CCN(C(=O)c3ccnc(C(F)(F)F)c3F)CC2)C1 [Itacitinib]
cell viability [%]
Details | drug 2 concentration 0 µM | drug 2 concentration 0.185185 µM | drug 2 concentration 0.555556 µM | drug 2 concentration 1.66667 µM | drug 2 concentration 5 µM | drug 2 concentration 15 µM
drug 1 concentration 0.493827 µM | 113 | 113 | 112 | 108 | 110 | 103
drug 1 concentration 1.48148 µM | 116 | 112 | 115.3 | 110 | 111 | 111
drug 1 concentration 4.44444 µM | 108 | 104 | 111 | 107 | 107 | 103
drug 1 concentration 13.3333 µM | 110 | 115 | 117 | 113 | 104 | 110
drug 1 concentration 40 µM | 117 | 116 | 116 | 116 | 122 | 119

N#Cc1ccc(C(c2ccc(C#N)cc2)n2cncn2)cc1 [Letrozole] + NCCc1ccc(O)c(O)c1 [Dopamine HCl]
cell viability [%]
Details | drug 2 concentration 0 µM | drug 2 concentration 0.123457 µM | drug 2 concentration 0.37037 µM | drug 2 concentration 1.11111 µM | drug 2 concentration 3.33333 µM | drug 2 concentration 10 µM
drug 1 concentration 0.0246914 µM | 113 | 111 | 112 | 125 | 114 | 103
drug 1 concentration 0.0740741 µM | 125 | 125 | 132 | 129 | 142 | 133
drug 1 concentration 0.222222 µM | 114 | 104 | 108 | 104 | 108 | 110
drug 1 concentration 0.666667 µM | 115 | 118 | 119 | 114 | 115 | 106
drug 1 concentration 2 µM | 121 | 117 | 119 | 122 | 122 | 121

CN(Cc1cnc2nc(N)nc(N)c2n1)c1ccc(C(=O)N[C@@H](CCC(=O)O)C(=O)O)cc1 [Methotrexate] + COc1ccccc1OCC(O)COC(N)=O [Methocarbamol]
cell viability [%]
Details | drug 2 concentration 0 µM | drug 2 concentration 0.0679012 µM | drug 2 concentration 0.203704 µM | drug 2 concentration 0.611111 µM | drug 2 concentration 1.83333 µM | drug 2 concentration 5.5 µM
drug 1 concentration 0.00617284 µM | 103 | 105 | 108 | 97.6 | 100 | 111
drug 1 concentration 0.0185185 µM | 119 | 113 | 122 | 110 | 117 | 121
drug 1 concentration 0.0555556 µM | 99.5 | 105 | 108 | 100 | 96.3 | 94.9
drug 1 concentration 0.166667 µM | 96.3 | 93.7 | 98.2 | 97 | 95.4 | 89.4
drug 1 concentration 0.5 µM | 105 | 107 | 96.5 | 96.5 | 101 | 99.5

Structures can show the parent of a compound that is named as a salt. Several reference drugs read as weak here; read low effects with care.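 Drug pairs were tested on MCF7 breast cancer cells in a dose grid. On every plate, solvent-only DMSO wells served as the untreated reference, and a doxorubicin series served as the total-kill control. No hit threshold applies to the viability readings.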
